Literature values in US10507214B2 (Druggability Technologies IP Holdco Limited, priority 2016, dated 2019).
At least one read-out could not be matched to a standard name with certainty.

Conditions: in vivo; cited from earlier work

Question: Which “apparent volume of distribution at steady state (Vss/F)” value does the source give for `Cc1ccc(-c2cc(C(F)(F)F)nn2-c2ccc(S(N)(=O)=O)cc2)cc1` [Celecoxib, 4-[5-(4-methylphenyl)-3-(trifluoromethyl)-1H-pyrazol-1-yl] benzenesulfonamide] here?
Answer: approximately 400 L
